For at least one entry, the source does not settle the construct or the ends of the probe. No signal at the amounts used counts as a negative. Weaker means in comparison with the reference protein, sequence or condition of that experiment.
Target: MutS (Escherichia coli) (UniProt P23909)
Assay: binding assay
Details: immobilized MutS, label: 5' biotin on first strand
[1] = [strand 1: 1 (5'-biotin)], detected less well than 1-2 unpaired bases, letters built from the parent sequence and the stated change

Chains of the proteins cited; added tags and fusions are not shown. Lines headed by an entry give the natural chain unless they say otherwise; changes in a name come on top.
UniProt P23909: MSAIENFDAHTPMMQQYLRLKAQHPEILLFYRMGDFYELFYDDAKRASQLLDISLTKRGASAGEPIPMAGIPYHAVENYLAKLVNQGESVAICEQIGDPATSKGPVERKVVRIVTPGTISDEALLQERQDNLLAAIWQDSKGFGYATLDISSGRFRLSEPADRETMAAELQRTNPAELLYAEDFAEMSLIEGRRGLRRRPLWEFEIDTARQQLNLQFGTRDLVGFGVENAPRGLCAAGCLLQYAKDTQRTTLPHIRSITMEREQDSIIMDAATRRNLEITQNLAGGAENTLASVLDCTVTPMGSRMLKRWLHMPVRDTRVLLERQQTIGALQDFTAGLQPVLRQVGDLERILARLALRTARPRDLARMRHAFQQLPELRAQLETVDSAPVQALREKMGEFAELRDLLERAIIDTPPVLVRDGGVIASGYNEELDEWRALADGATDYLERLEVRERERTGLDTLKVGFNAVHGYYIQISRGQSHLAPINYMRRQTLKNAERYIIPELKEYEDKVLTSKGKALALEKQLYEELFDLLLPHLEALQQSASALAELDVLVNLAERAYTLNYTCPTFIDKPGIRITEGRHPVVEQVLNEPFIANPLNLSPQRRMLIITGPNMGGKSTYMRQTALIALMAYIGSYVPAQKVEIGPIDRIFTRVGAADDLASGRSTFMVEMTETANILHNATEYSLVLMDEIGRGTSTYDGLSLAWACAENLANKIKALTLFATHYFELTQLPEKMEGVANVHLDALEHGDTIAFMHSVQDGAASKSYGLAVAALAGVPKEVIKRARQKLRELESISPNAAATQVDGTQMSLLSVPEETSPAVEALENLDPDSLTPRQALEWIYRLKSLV

Sequence | binding result [1] | binding result (only mismatch not detected)
GCACCTGACTCCTGGGGAGAAGTCTGCCGT / ACGGCAGACTTCTCCGACCCAGGAGTCAGGTGC [Unpaired CAG] | binds more weakly | 
GCACCTGACTCCTGGCGAGAAGTCTGCCGT / ACGGCAGACTTCTCCCCAGGAGTCAGGTGC [C//C mismatch 30mer] |  | no binding
GCACCTGACTCCTGGGGAGAAGTCTGCCGT / ACGGCAGACTTCTCCGGACCCAGGAGTCAGGTGC [Unpaired CAGG] | binds more weakly | 

— patent US6120992
